Data reported in PubChem BioAssay AID493014 (National Center for Advancing Translational Sciences (NCATS), 2011).
Screen size: about 340,000 compounds; about 170 (0.05%) were called active. The shares of active, inactive and inconclusive entries below differ from those in the screen. The call rests on the fitted dose curve; in most records, active means well fitted inhibition curve with a large enough effect in the signal ratio, with a control signal flat (not every such curve was filed as active); inconclusive means small, poorly fitted or top-dose-only effect, or effect the other way, or a change in a side signal; inactive means flat fitted curve, though single readings scatter; the % refers to the signal ratio. Potencies beside an inconclusive call are fits to weak or partial responses and may not hold up.

Experiment: qHTS Assay to Find Inhibitors of Chronic Active B-Cell Receptor Signaling;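 on activity change, negative = inhibition: plate controls were basal doxycycline-induced cells for no effect and cells given 10 µM MG132 for full effect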
Settings: ABC-DLBCL IkBa-CBG/CBR reporter, luminescence ratio (green luciferase fused to IkBa over red control in TMD8 lymphoma cells), 4 h; activity change, negative = inhibition: at 46.1 µM (top of the series)
Method in brief: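 TMD8 human ABC-DLBCL cells with doxycycline-inducible IκBα–green luciferase fusion and unfused red luciferase, in 0.5% FBS medium; compounds up to 46 uM, 4 h at 37C. Green/red luminescence ratio, filter-overlap corrected, fitted to concentration-response curves.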
Potency means the concentration at half of the fitted maximal effect.

| Compound | Potency | activity change, negative = inhibition |
| --- | --- | --- |
| COC(OC)C12c3ccccc3C(c3ccccc31)C1C(=O)N(c3cccnc3)C(=O)C12 (stereo not drawn) | inconclusive: 3.55 µM [falling, single point] | – |
| C=CCC1(C#N)C(=S)NC(C)=C(C(=O)OCC)C1c1ccccc1 (stereo not drawn) | – | inconclusive: 5.48% |
| CC(C)c1nc(SCC(=O)c2c[nH]c3ccccc23)n[nH]1 | – | inconclusive: 6.05% |
| COc1cc(CNCCNC(=O)c2nonc2N)ccc1OCc1ccc(Cl)nc1 | inconclusive: 35.5 µM [falling, single point] | – |
| CC1CCN(c2ccc(NC(=S)NC(=O)c3ccco3)cc2)CC1 | inconclusive: 17.8 µM [falling, single point] | – |
| CCN(C(=O)CSc1nnc(NC2CCCCC2)s1)C1CCS(=O)(=O)C1 (stereo not drawn) | inconclusive: 1.16 µM [falling, full curve, poor fit] | – |
| CCc1c(C(C)S(=O)(=O)c2ccc(C)cc2)[nH]c(=O)n1-c1ccc(C)cc1 (stereo not drawn) | – | inconclusive: -23.5% |
| COc1cc2nc(SCC(N)=O)n(CCC3=CCCCC3)c(=O)c2cc1OC | – | inconclusive: 4.29% |
| S=C(NCc1ccccc1)Nc1cccc2cnccc12 | – | inactive |
| CC12CCC3c4ccc(O)cc4CCC3C1CCC2=O (stereo not drawn) | – | inconclusive: -3.73% |
| Cc1ccc[n+](CC(=O)Nc2nc3ccccc3s2)c1 | inconclusive: 35.5 µM [falling, single point] | – |
| CCC(C)CCN1C(Nc2ccccc2)=NC[C@@H]1CC(C)C (stereo partly drawn) | – | inconclusive: -1.89% |
| CC(=O)c1ccc(N2CCN(S(=O)(=O)c3ccc4c(c3)CC(=O)N4)CC2)cc1 | – | inconclusive: 18.3% |
| Cc1ccc(-n2ncc3c(NCCc4ccccc4)ncnc32)cc1C | – | inconclusive: -1.96% |
| Cc1nc(CCNC(=O)Cc2ccc(Cl)cc2)cs1 | – | inconclusive: 13.8% |
| Cc1ccccc1-n1c(=O)c2ccccc2n2c(=O)[nH]nc12 | – | inconclusive: -15.5% |
| O=C(Nc1cccnc1)c1ccc(COc2ccccc2Br)cc1 | inconclusive: 35.5 µM [falling, partial curve, poor fit] | – |
| COc1ccc(-c2nc(-c3ccc(NC(=O)c4ccc(Br)o4)cc3)no2)cc1OC | – | inconclusive: -0.105% |
| Cc1ccc(C(=O)Sc2cccccc2=O)cc1 | – | inconclusive: 18.6% [cytotoxic] |
| CNC(=O)CSc1nc2nc(C)cc(C)n2n1 | – | inconclusive: -1.1% |
| CCOC(=O)/C=C/C(=O)Nc1ccc(S(=O)(=O)N(C)c2ccccc2)cc1 | – | inconclusive: -19.4% |
| CCOC(=O)c1c(C=O)c2sc(C)cc2n1C | inconclusive: 25.1 µM [falling, single point] | – |
| COc1ccc2c(c1)CC/C2=N\OC(=O)c1ccccc1C | inconclusive: 20 µM [falling, single point] | – |
| CCOc1ccc(N=Nc2c(C)noc2C)cc1 | – | inconclusive: 17.8% |
| CCN(CC)CCNC(=O)c1ccc(CS(=O)(=O)c2ccccc2C)o1 | – | inconclusive: -0.47% |

| Compound | Potency | activity change, negative = inhibition |
| --- | --- | --- |
| COc1ccc(-c2ncc3ccccn23)cc1OC | – | inconclusive: -10.6% |
| COc1ccccc1NC(=O)Nc1nc(CC(=O)Nc2ccc(N(C)C)cc2)cs1 | – | inconclusive: -14.1% |
| Cc1cc(Oc2nc3ccccn3c(=O)c2/C=C(\C#N)C(=O)NC2CCS(=O)(=O)C2)ccc1Cl (stereo not drawn) | inconclusive: 35.5 µM [falling, single point] | – |
| CC1=C(C(=O)Nc2ccccc2)C(c2ccco2)C(C#N)=C(SCc2ccccc2)N1 (stereo not drawn) | – | inconclusive: 14.2% |
| COc1cc(CNc2ccc3[nH]c(=O)[nH]c3c2)cc(Br)c1OCC(=O)NC(C)(C)C | – | inactive |
| CCS(=O)(=O)c1ccc(C(=O)Nc2cccc(Cl)c2)c(Cl)c1Cl | – | inactive |
| Cc1cccc(N2CCN(C(=O)Cc3cn(C)c4ccccc34)CC2)c1C | inconclusive: 18.4 µM [falling, single point] | – |
| O=C(O)c1ccc2cccc(Cl)c2c1O | – | inconclusive: 0.979% |
| O=C(NCCCN1CCOCC1)c1ccc2c(c1)N(Cc1ccccc1)C(=O)c1ccccc1S2 | – | inactive |
| O=C(Nc1ncccc1Cl)C1COc2ccccc2O1 (stereo not drawn) | – | inconclusive: 16.2% |
| COc1ccc(C(c2nnnn2Cc2ccccc2)N2CCN(c3nc4ccccc4s3)CC2)cc1OC (stereo not drawn) | – | inactive |
| O=C(Cc1cccs1)NC1CC(=O)N(c2ccccc2)C1 (stereo not drawn) | inconclusive: 2 µM [falling, partial curve, poor fit] | – |
| Cc1ccc(C)c(NC(=O)c2cc(-c3ccccc3O)n[nH]2)c1 | inconclusive: 4.47 µM [rising, full curve, poor fit] | – |
| CC1(C)O[C@@H]2CC3C4C[C@H](F)C5=CC(=O)C=CC5(C)C4C(O)CC3(C)[C@]2(C(=O)CO)O1 (stereo partly drawn) | – | inconclusive: -15.5% |
| Cc1ccc2[nH]c(O)c(N=NC(=O)c3ccc(NS(=O)(=O)c4cccs4)cc3)c2c1 | inconclusive: 2.51 µM [cytotoxic, partial curve, poor fit] | – |
| CCC(C)NC(=O)c1ccc2nc(-c3ccc(OC)c(OC)c3)c(-c3ccc(OC)c(OC)c3)nc2c1 (stereo not drawn) | – | inconclusive: 2.61% |
| O=C(Nc1nccs1)c1cc([N+](=O)[O-])ccc1Cl | – | inconclusive: -5.15% |
| O=c1oc2ccccc2n1CCn1c2ccccc2c2nc3ccccc3nc21 | – | inconclusive: 2.32% |
| COC(=O)c1ccc(COC(=O)CCc2nc(-c3ccccc3)c(-c3ccccc3)o2)cc1 | – | inconclusive: 3.57% |
| COc1ccc(-n2c(/C=C/c3cc(OC)c(OC)cc3OC)nc3cc4ccccc4cc3c2=O)cc1Cl | inconclusive: 3.55 µM [falling, partial curve, poor fit] | – |
| CN(C(=O)c1ccc(NC(=O)Cc2cccc(NC(=O)C3CCN(C(=O)c4ccccc4)CC3)c2)cc1)C1CCCC1 | – | inconclusive: -1.5% |
| O=S1(=O)CCC(NC(=S)N2CCCCCC2)C1 (stereo not drawn) | – | inconclusive: 3.04% |
| NC(=S)N/N=C/c1ccccc1OCc1cccc(Cl)c1 | inconclusive: 35.5 µM [falling, single point] | – |
| Cn1c2ccccc2c(=O)c2ccc(C#Cc3ccc(N)cc3)cc21 | – | inactive |
| Cc1cc(N=CC2=C(O)CC(C)(C)CC2=O)no1 | – | inconclusive: 0.444% |
| CN1CCOc2ccc(S(=O)(=O)N3CCN(S(=O)(=O)c4c(F)cccc4F)CC3)cc21 | – | inconclusive: 20.9% |

| Compound | Potency | activity change, negative = inhibition |
| --- | --- | --- |
| CCC/C=N/NC(=O)c1[nH]c2c([N+](=O)[O-])cccc2c1C | inconclusive: 5.17 µM [falling, partial curve, poor fit] | – |
| CCN(CC)c1ccc2cc(-c3nnc(-c4ccncc4)o3)c(=O)oc2c1 | – | inactive |
| Cc1ccc2c(c1)Sc1c(ccc3ccccc13)N2 | – | inconclusive: 11.7% |
| CN1CC(c2ccc(C#N)cc2)C2(COc3ccccc3C2=O)C12C(=O)Nc1ccccc12 (stereo not drawn) | inconclusive: 20 µM [falling, partial curve, poor fit] | – |
| O=C(O)CCC(=O)OCCc1cc2ccccc2c(=O)o1 | – | inconclusive: -9.36% |
| COc1ccc(-c2oc(NC(=O)CSc3ncn[nH]3)c(C#N)c2-c2ccc(OC)cc2)cc1 | – | inconclusive: -9.4% |
| COC(=O)C1=NN(c2ccccc2OC)C2C(=O)N(c3ccccc3OC)C(=O)C12 (stereo not drawn) | – | inconclusive: 5.48% |
| CC1(C)CC(=O)C(C=Nc2cccc(/N=C/C3=C(O)CC(C)(C)CC3=O)n2)=C(O)C1 | – | inconclusive: 2.47% |
| CNC(=O)CSc1nc2sccc2c(=O)n1-c1ccccc1 | – | inconclusive: -3.13% |
| O=C(Nc1cc(-c2ccccc2)nn1-c1ccccc1)c1ccccc1F | inconclusive: 23.1 µM [falling, single point] | – |
| COc1ccc(OCC#CCN2CC(C)OC(C)C2)cc1 (stereo not drawn) | – | inconclusive: 5.1% |
| COc1ccc(-c2nn(C)c3sc(C(=O)N4CCOCC4)cc23)cc1OC | inconclusive: 8.2 µM [falling, partial curve] | – |
| O=C1NC(c2ccccc2)=C(c2ccc3ccccc3n2)C(c2ccc(F)cc2)N1 (stereo not drawn) | – | inconclusive: 8.93% |
| COc1ccc(/C=N/NC(=O)c2ccoc2C)cc1OC | inconclusive: 18.4 µM [falling, partial curve] | – |
| CCOC(=O)c1oc2ccccc2c1NC(=O)CN1CCN(C)CC1 | – | inactive |
| S=C(Nc1ccc(Cl)cc1)c1nc2ccccc2[nH]1 | – | inconclusive: 11.5% |
| Cc1ccc(C(=O)Nc2cccc(NC(=O)CN3CCCCC3)c2)cc1 | – | inconclusive: -14.5% |
| Cc1nc2cc(NCc3cccs3)ccc2n1C | inconclusive: 35.5 µM [falling, single point] | – |
| N#Cc1ccccc1OCC(=O)NNC(=O)CCC1CCCC1 | – | inactive |
| Cc1c(C(C)(C(=O)O)c2c(C)n(C)c3ccccc23)c2ccccc2n1C | – | inconclusive: -16.8% |
| C=C(C)COc1ccc(-c2nc(N)ncc2Oc2ccccc2OCC)c(O)c1 | – | inconclusive: -20.2% |
| Cc1ccccc1NC(=S)NCCC(c1ccccc1)c1ccccc1 | – | inactive |
| CCCCCC(=O)NC(=S)Nc1ccc(N2CCCCC2)c(Cl)c1 | – | inconclusive: 8.45% |
| C=CCN1C(=O)C(Cc2ccc(OC)cc2)SC1=Nc1ccc(C(=O)O)cc1 (stereo not drawn) | – | inconclusive: -4.69% |
| COc1ccccc1NC(=O)C(=O)N/N=C(\C)CC(=O)Nc1ccccn1 | inconclusive: 31.6 µM [rising, single point] | – |
| Cc1ccc(C2CC(=O)Nc3c2ccc2ccccc32)cc1[N+](=O)[O-] (stereo not drawn) | – | inconclusive: -0.331% |

Entries shown so far that contain a nitro group on carbon:

| Compound | Potency | activity change, negative = inhibition |
| --- | --- | --- |
| O=C(Nc1nccs1)c1cc([N+](=O)[O-])ccc1Cl | – | inconclusive: -5.15% |
| CCC/C=N/NC(=O)c1[nH]c2c([N+](=O)[O-])cccc2c1C | inconclusive: 5.17 µM [falling, partial curve, poor fit] | – |
| Cc1ccc(C2CC(=O)Nc3c2ccc2ccccc32)cc1[N+](=O)[O-] (stereo not drawn) | – | inconclusive: -0.331% |
